# Part of at least one peptide drawing is inferred or uncertain, most often the ends.
# System: rats subjected to cecal ligation puncture (CLP)
# Test: CLP sepsis model: survival over 10 days
# Format: in vivo, Male Wistar rats
structure (smiles),measurement,setting,value
"CC(C)C[C@@H](CN[C@@H](CC(C)C)C(N)=O)NC(=O)[C@H](Cc1c[nH]cn1)NC(=O)CNC(=O)[C@@H](NC(=O)[C@H](C)NC(=O)[C@H](Cc1c[nH]c2ccccc12)NC(=O)[C@H](CCC(N)=O)NC(=O)[C@H]1Cc2c([nH]c3ccccc23)CN1)C(C)C [RC-3095, H-D-Tpi-Gln-Trp-Ala-Val-Gly-His-Leu-psi-Leu-NH2]",improvement of survival,"RC-3095 1 h before or 1 h after CLP without basic support, data not shown",approximately 50%
same,mortality compared to basic support,"RC-3095 6 hours after CLP once a day for 1 day, with basic support, data not shown",did not improved mortality
same,survival in established sepsis,"with basic support, RC-3095 5 mg/kg s.c. once a day for 2 days starting 6 h after CLP, 10-day period, FIG. 1",significantly improved survival
